The supplement of paper PMC4604168 (melanoma cell lines)
The list shows a part of the results. Single values are uncertain, as repeats are few or missing.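 The apoptosis fraction was the count of cleaved-PARP antibody-stained nuclei relative to all DNA-stained nuclei, imaged in 1,536-well plates. Screening doses were set so most cells survived, and baseline and induced cleaved-PARP levels vary greatly across cell lines.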

Key:
Assay in all cases: cleaved PARP positive nuclei fraction relative to DMSO control; melanoma cells; higher = more apoptosis
Details in all cases: library dose: low library concentration; 72 h
501Mel = system: 501Mel
A101D = system: A101D
A2058 = system: A2058
C32 = system: C32
CBRC008 = system: CBRC008 (line from a melanoma biopsy)
CBRC014 = system: CBRC014 (line from a melanoma biopsy)
CBRC016 = system: CBRC016 (line from a melanoma biopsy)
CBRC017 = system: CBRC017 (line from a melanoma biopsy)

| SMILES | cleaved PARP positive nuclei fraction (501Mel) [%] | cleaved PARP positive nuclei fraction (A101D) [%] | cleaved PARP positive nuclei fraction (A2058) [%] | cleaved PARP positive nuclei fraction (C32) [%] | cleaved PARP positive nuclei fraction (CBRC008) [%] | cleaved PARP positive nuclei fraction (CBRC014) [%] | cleaved PARP positive nuclei fraction (CBRC016) [%] | cleaved PARP positive nuclei fraction (CBRC017) [%] |
| --- | --- | --- | --- | --- | --- | --- | --- | --- |
| Cc1cc(Nc2cc(N3CCN(C)CC3)nc(Sc3ccc(NC(=O)C4CC4)cc3)n2)n[nH]1 [Tozasertib] + O=C1NC(=O)/C(=C/c2ccc(-c3ccc(F)cc3O)o2)S1 [AS252424] (first compound 0.006 µM, partner dose 1 µM) | 143 | 43.1 | 82.3 | 81.6 | 159 | 115 | 73.5 | 155 |
| Cc1cc(Nc2cc(N3CCN(C)CC3)nc(Sc3ccc(NC(=O)C4CC4)cc3)n2)n[nH]1 [Tozasertib] + c1cc(-c2cnn3cc(-c4ccc(OCCN5CCCCC5)cc4)cnc23)ccn1 [Dorsomorphin] (first compound 0.006 µM, partner dose 0.4 µM) | 76.6 | 55.7 | 156 | 39.9 | 79.3 | 101 | 18.8 | 114 |
| Cc1ccc(Nc2nccc(N(C)c3ccc4c(C)n(C)nc4c3)n2)cc1S(N)(=O)=O [Pazopanib] + Oc1cc(-c2nc(-c3ccccc3)[nH]c2-c2ccncc2)ccc1Cl [L779450] (first compound 0.4 µM, partner dose 0.2 µM) | 169 | 46.2 | 61 | 133 | 62.1 | 90.5 | 73.9 | 95.1 |
| Cc1cn(-c2cc(NC(=O)c3ccc(C)c(Nc4nccc(-c5cccnc5)n4)c3)cc(C(F)(F)F)c2)cn1 [nilotinib] + CCN(CC)CCCCNc1ncc2cc(-c3cc(OC)cc(OC)c3)c(NC(=O)NC(C)(C)C)nc2n1 [PD173074] (first compound 0.2 µM, partner dose 0.1 µM) | 38.6 | 47.1 | 108 | 361 | 89.6 | 79.8 | 103 | 70.3 |
| O=c1[nH]nc(Sc2ncc([N+](=O)[O-])s2)n1-c1ccc2c(c1)OCCO2 + O=S(=O)(c1ccccc1)N(CC(F)(F)F)c1ccc(C(O)(C(F)(F)F)C(F)(F)F)cc1 [T0901317] (first compound 0.2 µM, partner dose 1.4 µM) | 82.9 | 75.5 | 79.7 | 85.9 | 81.9 | 105 | 59.1 | 116 |
| Cc1ccc(Nc2nccc(N(C)c3ccc4c(C)n(C)nc4c3)n2)cc1S(N)(=O)=O [Pazopanib] + O=C(O)C(=O)Nc1sc2c(c1C(=O)O)CCNC2 [TCS401] (first compound 0.4 µM, partner dose 1.66667 µM) | 58.3 | 31.1 | 46.2 | 142 | 207 | 107 | 72.6 | 126 |
| Cc1cc(Nc2cc(N3CCN(C)CC3)nc(Sc3ccc(NC(=O)C4CC4)cc3)n2)n[nH]1 [Tozasertib] + COc1cc2ncnc(Nc3ccc(Oc4ccccc4)cc3)c2cc1OC [SrcI1] (first compound 0.006 µM, partner dose 2 µM) | 91.5 | 29.4 | 56 | 165 | 275 | 91 | 30.5 | 116 |
| CC[C@]1(O)C[C@H]2CN(CCc3c([nH]c4ccccc34)[C@@](C(=O)OC)(c3cc4c(cc3OC)N(C=O)[C@H]3[C@@](O)(C(=O)OC)[C@H](OC(C)=O)[C@]5(CC)C=CCN6CC[C@]43[C@@H]65)C2)C1 [vincristine] + O=C(Nc1ccccc1)c1cc([N+](=O)[O-])ccc1Cl [GW9662] (first compound 0.0001 µM, partner dose 2 µM) | 89.2 | 40.2 | 935 | 114 | 370 | 117 | 141 | 116 |
| O=C(Nc1cc(C(F)(F)F)cc(C(F)(F)F)c1)c1cc(Cl)ccc1O + O=C(O)C(=O)Nc1sc2c(c1C(=O)O)CCNC2 [TCS401] (first compound 0.016 µM, partner dose 1.66667 µM) | 66.6 | 19.6 | 63.7 | 74.4 | 40.2 | 78 | 109 | 141 |
| CCCCCCCCCCCCCCCCCCOP(=O)([O-])OC1CC[N+](C)(C)CC1 [Perifosine] + c1cc(-c2cnn3cc(-c4ccc(OCCN5CCCCC5)cc4)cnc23)ccn1 [Dorsomorphin] (first compound 0.4 µM, partner dose 0.4 µM) | 86.3 | 20.6 | 137 | 170 | 496 | 547 | 99.1 | 91.4 |
| O=C(Nc1cc(C(F)(F)F)cc(C(F)(F)F)c1)c1cc(Cl)ccc1O + O=c1cc(-c2cccc3c2Sc2ccccc2S3)oc(N2CCOCC2)c1 [KU55933] (first compound 0.016 µM, partner dose 1 µM) | 122 | 17.8 | 106 | 57.9 | 172 | 97.5 | 76.6 | 186 |
| O=C(Nc1cc(C(F)(F)F)cc(C(F)(F)F)c1)c1cc(Cl)ccc1O + Oc1cc(-c2nc(-c3ccccc3)[nH]c2-c2ccncc2)ccc1Cl [L779450] (first compound 0.016 µM, partner dose 0.2 µM) | 93 | 50.4 | 40.4 | 61.1 | 169 | 104 | 104 | 83 |
| Cc1ccc(Nc2nccc(N(C)c3ccc4c(C)n(C)nc4c3)n2)cc1S(N)(=O)=O [Pazopanib] + Cn1cc(/C=C2\C(=O)Nc3cccnc32)c2ccccc21 [GW441756] (first compound 0.4 µM, partner dose 0.4 µM) | 64.3 | 26.8 | 141 | 38.6 | 195 | 189 | 60 | 107 |
| CC[C@]1(O)C[C@H]2CN(CCc3c([nH]c4ccccc34)[C@@](C(=O)OC)(c3cc4c(cc3OC)N(C=O)[C@H]3[C@@](O)(C(=O)OC)[C@H](OC(C)=O)[C@]5(CC)C=CCN6CC[C@]43[C@@H]65)C2)C1 [vincristine] + Oc1nc(-c2ccc(C(F)(F)F)cc2)nc2c1CSCC2 [XAV939] (first compound 0.0001 µM, partner dose 2 µM) | 66.5 | 45.1 | 1110 | 44.7 | 130 | 77.6 | 50.8 | 130 |
| O=C(/C=C/c1cccnc1)NCCCCC1CCN(C(=O)c2ccccc2)CC1 + c1cc(-c2cnn3cc(-c4ccc(OCCN5CCCCC5)cc4)cnc23)ccn1 [Dorsomorphin] (first compound 0.01 µM, partner dose 0.4 µM) | 183 | 10 | 137 | 157 | 3370 | 104 | 176 | 282 |
| O=c1[nH]nc(Sc2ncc([N+](=O)[O-])s2)n1-c1ccc2c(c1)OCCO2 + O=C1NC(=O)/C(=C/c2ccc(-c3ccc(F)cc3O)o2)S1 [AS252424] (first compound 0.2 µM, partner dose 1 µM) | 72.9 | 28.1 | 50.5 | 188 | 30.9 | 101 | 45.5 | 88.8 |
| CCCCCCCCCCCCCCCCCCOP(=O)([O-])OC1CC[N+](C)(C)CC1 [Perifosine] + N#Cc1c(O)c2c(-c3ccc(-c4ccccc4O)cc3)csc2[nH]c1=O [A769662] (first compound 0.4 µM, partner dose 2 µM) | 220 | 8.92 | 53.6 | 38.6 | 54.6 | 82 | 53.9 | 98.9 |
| O=c1[nH]nc(Sc2ncc([N+](=O)[O-])s2)n1-c1ccc2c(c1)OCCO2 + COc1cc2ncnc(Nc3ccc(Oc4ccccc4)cc3)c2cc1OC [SrcI1] (first compound 0.2 µM, partner dose 2 µM) | 69.6 | 36.3 | 45.3 | 78.4 | 104 | 111 | 49.7 | 96.7 |
| O=C(/C=C/c1cccnc1)NCCCCC1CCN(C(=O)c2ccccc2)CC1 + Cn1cc(/C=C2\C(=O)Nc3cccnc32)c2ccccc21 [GW441756] (first compound 0.01 µM, partner dose 0.4 µM) | 75.9 | 49.6 | 168 | 57.6 | 2150 | 113 | 981 | 563 |
| O=c1[nH]nc(Sc2ncc([N+](=O)[O-])s2)n1-c1ccc2c(c1)OCCO2 + Oc1nc(-c2ccc(C(F)(F)F)cc2)nc2c1CSCC2 [XAV939] (first compound 0.2 µM, partner dose 2 µM) | 120 | 29.1 | 240 | 171 | 28.5 | 100 | 67.8 | 116 |
| Cc1cc(Nc2cc(N3CCN(C)CC3)nc(Sc3ccc(NC(=O)C4CC4)cc3)n2)n[nH]1 [Tozasertib] + CCc1ccc(CCOc2ccc(CC3SC(=O)NC3=O)cc2)nc1 [pioglitazone] (first compound 0.006 µM, partner dose 2 µM) | 66.6 | 48.8 | 96.2 | 335 | 80.2 | 96.8 | 71 | 87.8 |
| Cc1cn(-c2cc(NC(=O)c3ccc(C)c(Nc4nccc(-c5cccnc5)n4)c3)cc(C(F)(F)F)c2)cn1 [nilotinib] + COc1ccc(-c2ccc3c(N4CCOCC4)nc(N4C[C@@H](C)O[C@@H](C)C4)nc3n2)cc1CO [KU0063794] (first compound 0.2 µM, partner dose 0.02 µM) | 149 | 19.1 | 87.2 | 92.2 | 57.2 | 94.6 | 33.8 | 108 |
| O=C(/C=C/c1cccnc1)NCCCCC1CCN(C(=O)c2ccccc2)CC1 + COc1cc2ncnc(Nc3ccc(Oc4ccccc4)cc3)c2cc1OC [SrcI1] (first compound 0.01 µM, partner dose 2 µM) | 221 | 17.5 | 62 | 47.8 | 4100 | 154 | 164 | 344 |

Record cards, from the list above:
O=C(/C=C/c1cccnc1)NCCCCC1CCN(C(=O)c2ccccc2)CC1 + Cn1cc(/C=C2\C(=O)Nc3cccnc32)c2ccccc21 [GW441756] (first compound 0.01 µM, partner dose 0.4 µM) as listed: cleaved PARP positive nuclei fraction (501Mel) [%]: 75.9; cleaved PARP positive nuclei fraction (A101D) [%]: 49.6; cleaved PARP positive nuclei fraction (A2058) [%]: 168; cleaved PARP positive nuclei fraction (C32) [%]: 57.6; cleaved PARP positive nuclei fraction (CBRC008) [%]: 2150; cleaved PARP positive nuclei fraction (CBRC014) [%]: 113; cleaved PARP positive nuclei fraction (CBRC016) [%]: 981; cleaved PARP positive nuclei fraction (CBRC017) [%]: 563
CC[C@]1(O)C[C@H]2CN(CCc3c([nH]c4ccccc34)[C@@](C(=O)OC)(c3cc4c(cc3OC)N(C=O)[C@H]3[C@@](O)(C(=O)OC)[C@H](OC(C)=O)[C@]5(CC)C=CCN6CC[C@]43[C@@H]65)C2)C1 [vincristine] + Oc1nc(-c2ccc(C(F)(F)F)cc2)nc2c1CSCC2 [XAV939] (first compound 0.0001 µM, partner dose 2 µM) as listed: cleaved PARP positive nuclei fraction (501Mel) [%]: 66.5; cleaved PARP positive nuclei fraction (A101D) [%]: 45.1; cleaved PARP positive nuclei fraction (A2058) [%]: 1110; cleaved PARP positive nuclei fraction (C32) [%]: 44.7; cleaved PARP positive nuclei fraction (CBRC008) [%]: 130; cleaved PARP positive nuclei fraction (CBRC014) [%]: 77.6; cleaved PARP positive nuclei fraction (CBRC016) [%]: 50.8; cleaved PARP positive nuclei fraction (CBRC017) [%]: 130
